From US20230116196A1, “METHOD OF TREATING CNS DISORDERS WITH NEU[…] GABAERGIC COMPOUNDS” (priority 2017, published 2023)

Test system: GABAA receptor α4 and β3 subunits
Assay: Biotinylation: cell surface levels of GABAA receptor subunits in hippocampal slices
Format: cell-based, mouse
Settings: 100 nM, acute hippocampal slices
Description: Hippocampi were dissected out of acute slices from 8 to 12 week old C57/Bl6 mice and lysed with […] including: 20 mM Tris-HCl, 150 mM NaCl, 5 mM EDTA, 10 mM NaF, 2 mM Na3VO4, 10 mM pyrophosphate, 0.1% SDS and 1% Triton after drug treatment. The β3 subunit was isolated using immunoprecipitation with β3 antibodies, after correction for protein content and the specific activity of labeling. Results were attained by SDS/PAGE followed by autoradiography (Abramian et al., 2010). For biotinylation experiments hippocampi were dissected out of acute slices from 8 to 12 week old C57/Bl6 mice and incubated in artificial cerebrospinal fluid (ACSF) described above at 30° C. for 1 h for recovery before experimentation. Slices were then placed on ice and incubated for 30 min with 1 mg/mL NHS-SS-biotin (Pierce). Excess biotin was removed by a 50 mM glycine quenching buffer, followed by washing of slices three times in ice-cold ACSF. The tissue was snap frozen on dry ice for 5 min, thawed at 4° C. and lysed. The lysates were solubilized with 2% Triton at 4° C. on a rotating wheel for 1 h. The insoluble material was removed by centrifugation, and 350-500 μg of protein lysate were incubated with NeutrAvidin beads (Pierce) for 18-24 h at 4° C. […] Blots were then quantified using the CCD-based ChemiDoc XRS ? system. […]

CN1C(=O)CN=C(c2ccccc2)c2cc(Cl)ccc21 [diazepam]
GABAA-β3-containing receptors at the plasma membrane / cell surface stability of the β3 subunit: did not affect
